Test results taken from publication PMC11977269.
Results are given in words; binding and its absence hold for the method and conditions named. Binding seen in cells or lysates may run through a third protein. Some results given as binding are weak or reduced against the parent protein; the word gives no strength.

Protein sequences, listed by entry. Tags and fused reporters are not part of them. Lines headed by an entry give the natural chain unless they say otherwise; changes in a name come on top.
UniProt O15392: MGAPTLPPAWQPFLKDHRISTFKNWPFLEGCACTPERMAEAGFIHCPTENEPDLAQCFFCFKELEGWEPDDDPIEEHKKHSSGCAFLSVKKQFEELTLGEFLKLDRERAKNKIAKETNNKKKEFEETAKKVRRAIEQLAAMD

What was measured:
[1] = biological target: Survivin (human (endogenous in CAL27)) (UniProt O15392); test: co-IP; endogenous FBXL7 and Survivin in Skp2-deficient (knockout) and control CAL27 cells, with or without IR, cultured 24 h; IP lysis buffer, protein A/G-agarose beads and antibody at 4 °C for 24 h, western blot; precipitating antibody not stated
Flag-Survivin-WT = Flag-Survivin-WT (UniProt O15392); test: co-IP; Flag-Survivin-WT or T34D transfected into CAL27 cells for 48 h, IR treatment, cultured 24 h, MG132 for 6 h; interaction with endogenous FBXL7 read by immunoblot; precipitating antibody not stated
Flag-Survivin-T34D = Flag-Survivin-T34D (UniProt O15392); test: as above

Measured: binding

B1: FBXL7 (protein, UniProt Q9UJT9 1-491)
chain: MGANNGKQYGSEGKGSSSISSDVSSSTDHTPTKAQKNVATSEDSDLSMRTLSTPSPALICPPNLPGFQNGRGSSTSSSSITGETVAMVHSPPPTRLTHPLIRLASRPQKEQASIDRLPDHSMVQIFSFLPTNQLCRCARVCRRWYNLAWDPRLWRTIRLTGETINVDRALKVLTRRLCQDTPNVCLMLETVTVSGCRRLTDRGLYTIAQCCPELRRLEVSGCYNISNEAVFDVVSLCPNLEHLDVSGCSKVTCISLTREASIKLSPLHGKQISIRYLDMTDCFVLEDEGLHTIAAHCTQLTHLYLRRCVRLTDEGLRYLVIYCASIKELSVSDCRFVSDFGLREIAKLESRLRYLSIAHCGRVTDVGIRYVAKYCSKLRYLNARGCEGITDHGVEYLAKNCTKLKSLDIGKCPLVSDTGLECLALNCFNLKRLSLKSCESITGQGLQIVAANCFDLQTLNVQDCEVSVEALRFVKRHCKRCVIEHTNPAFF
binds: all assays above
